Record: PubChem BioAssay AID1508597 (Cure First, 2020)
This is an unselected part of the about 2,100 reagents, in one setting of the screen. 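Calls flag viability under 80% in either arm, not effects specific to rucaparib; the reference for percent is not stated.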 Unmarked entries are inactive. The numbers tell different reagents against one gene apart. Some reagents were tested in more than one well and are listed for each. The record does not give: the 100% reference.

Test: 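Knock-downs altering ovarian cancer cell survival with or without PARP inhibitor rucaparib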 (primary screen)
System: human ovarian carcinoma lines grown from tumours: OCI-P5x (papillary serous) and OCI-C5x (clear cell)
Reagents: siRNA pool against human genes, 1.25 pmol siRNA per well
Time to read-out: 72 h or 96 h, depending on the cell culture
Conditions: rucaparib 20 µM (about IC30) or vehicle, present until read-out
Rucaparib or vehicle: Vehicle
Cell line: OCI-C5x (clear cell)
Detection: 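Luminescent ATP-based viability assay read 72 or 96 h after transfection, depending on culture, given as normalised percent viability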
Scale: viability, normalised: higher = more viable cells remaining
Hit rule: 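Active when normalised viability falls below 80 percent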
Meaning of the calls: active = viability under 80%; inactive = viability 80% or more

The opening 3 records, to show the layout:
gene symbol,reagent,technical replicate,"viability, normalised (%)"
RBBP5,1,1,42 (active)
RBBP5,1,2,45.8 (active)
RBBP5,1,3,43.5 (active)

Results, from the first entry:
gene symbol,reagent,technical replicate,"viability, normalised (%)"
RBBP5,1,1,42 (active)
RBBP5,1,2,45.8 (active)
RBBP5,1,3,43.5 (active)
SLC16A2,1,1,56.6 (active)
SLC16A2,1,2,55.8 (active)
SLC16A2,1,3,45.8 (active)
MAP3K13,1,1,70.1 (active)
MAP3K13,1,1,137
MAP3K13,1,2,66.2 (active)
MAP3K13,1,2,59.6 (active)
MAP3K13,1,3,57.4 (active)
MAP3K13,1,3,44.5 (active)
MECOM,1,1,53.5 (active)
MECOM,1,2,51.2 (active)
MECOM,1,3,45 (active)
MECOM,2,1,40 (active)
MECOM,2,2,45.3 (active)
MECOM,2,3,51.8 (active)
JADE2,1,1,21.1 (active)
JADE2,1,2,17.2 (active)
JADE2,1,3,27 (active)
AMHR2,1,1,57.2 (active)
AMHR2,1,2,56.1 (active)
AMHR2,1,3,51.2 (active)
TDP1,1,1,46.3 (active)
TDP1,1,1,73.7 (active)
TDP1,1,2,53.6 (active)
TDP1,1,2,102
TDP1,1,3,40.9 (active)
TDP1,1,3,72.1 (active)
PRDM8,1,1,39.9 (active)
PRDM8,1,2,21.2 (active)
PRDM8,1,3,36.7 (active)
IL11,1,1,39 (active)
IL11,1,2,22.6 (active)
IL11,1,3,25.1 (active)
GTF2H2,1,1,56.3 (active)
GTF2H2,1,2,58.9 (active)
GTF2H2,1,3,41.5 (active)
